Some of the results follow. The data scatter; read single values as rough.
Columns and labels:
[1] = compound: ClCC(=O)N[C@@H]1CCCc2ccccc12; assay: log2 mean competition ratio of IA-DTB cysteine labelling (DMSO/compound) (log2 ratio); higher = stronger cysteine engagement by compound; conditions: treatment time: 4 h, cell line lysate: HEK293T
Method: (§1)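 IA-DTB competitive cysteine chemoproteomics in HEK293T RIPA lysate. Lysates were treated with compound 29 or 30 at 50 or 200 µM for 4 h, then IA-DTB (500 µM, 1 h), trypsin-digested, NeutrAvidin-enriched and analysed by diaPASEF. Competition ratio = intensity DMSO / intensity compound (n=4 treated, n=64 DMSO); binding: mean log2 CR ≥ 1 and p ≤ 0.05 plus QC filters. Target is the cysteine site.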

[2] = compound: ClCC(=O)N[C@H]1CCCc2ccccc12; assay: as above; conditions: treatment time: 4 h, cell line lysate: HEK293T
Method: as §1

Row | Target | log2 mean competition ratio ([1]; 50 µM) | log2 mean competition ratio ([1]; 200 µM) | log2 mean competition ratio ([2]; 50 µM) | log2 mean competition ratio ([2]; 200 µM)
1 | CSTF2T C441 (UniProt Q9H0L4) | 0.00755 | -0.0928 | 0.163 | -0.117
2 | DCTN1 C81 (UniProt Q14203) | -0.00399 | 0.135 | -0.524 | 0.0142
3 | DDX41 C540 (UniProt Q9UJV9) | -0.106 | -0.233 | -0.598 | -0.124
4 | DDX24 C832 (UniProt Q9GZR7) | 0.135 | 0.05 | 0.348 | 0.123
5 | CWF19L2 C214 (UniProt Q2TBE0) | -0.217 | -0.528 | 0.322 | -0.082
6 | CST3 C109 (UniProt P01034) | 0.702 | 0.377 | 0.0485 | -0.0584
7 | CUL9 C1281 (UniProt Q8IWT3) | -0.173 | 0.061 | -0.299 | 0.208
8 | CSTF2T C150 (UniProt Q9H0L4) | 0.284 | -0.199 | 0.381 | -0.189
9 | CXorf38 C31 (UniProt Q8TB03) | 0.121 | -0.0967 | -0.286 | -0.0517
10 | DCAF6 C593 (UniProt Q58WW2) | -0.0267 | 0.0506 | -0.243 | -0.0252
11 | DDX51 C402 (UniProt Q8N8A6) | -0.241 | 0.297 | -0.316 | 0.0566
12 | CRNKL1 C640 (UniProt Q9BZJ0) | 0.157 | -0.286 | 0.353 | -0.136
13 | CTNNA1 C337 (UniProt P35221) | -0.163 | -0.0387 | 0.053 | -0.0281
14 | DCAF5 C812 (UniProt Q96JK2) | 0.144 | -0.0476 | -0.125 | 0.00125
15 | CTNNA1 C116 (UniProt P35221) | -0.121 | -0.451 | 0.0258 | -0.382
16 | CSDE1 C680 (UniProt O75534) | -0.0153 | -0.39 | 0.215 | -0.381
17 | DDX23 C409 (UniProt Q9BUQ8) | 0.0804 | -0.268 | -0.135 | -0.195
18 | DCBLD2 C725 (UniProt Q96PD2) | -0.142 | 0.193 | -0.0756 | 0.000207
19 | DAB2IP C459 (UniProt Q5VWQ8) | 0.0426 | 0.52 | -0.402 | 0.224
20 | DDX3X C223 (UniProt O00571) | -0.0886 | -0.136 | 0.111 | 0.0191

Whole records, quoted from the list. Order of values: log2 mean competition ratio ([1]; 50 µM)	log2 mean competition ratio ([1]; 200 µM)	log2 mean competition ratio ([2]; 50 µM)	log2 mean competition ratio ([2]; 200 µM)
CTNNA1 C116 (UniProt P35221) in the list: -0.121	-0.451	0.0258	-0.382
DDX3X C223 (UniProt O00571) in the list: -0.0886	-0.136	0.111	0.0191
DDX51 C402 (UniProt Q8N8A6) in the list: -0.241	0.297	-0.316	0.0566
CSTF2T C150 (UniProt Q9H0L4) in the list: 0.284	-0.199	0.381	-0.189

Later entries

Row | Target | log2 mean competition ratio ([1]; 50 µM) | log2 mean competition ratio ([1]; 200 µM) | log2 mean competition ratio ([2]; 50 µM) | log2 mean competition ratio ([2]; 200 µM)
21 | DCP1B C369 (UniProt Q8IZD4) | 0.22 | -0.104 | -0.0236 | 0.0727
22 | DDX39B C165 | 0.0111 | -0.352 | 0.0819 | -0.338
23 | DDX41 C338 (UniProt Q9UJV9) | 0.00306 | 0.143 | 0.161 | 0.155
24 | CUL3 C251 (UniProt Q13618) | 0.0887 | -0.353 | 0.00994 | -0.353
25 | CSNK1A1;CSNK1A1L C249;(C249) | 0.133 | 0.0409 | 0.0746 | 0.169
26 | DDI2 C361 (UniProt Q5TDH0) | -0.349 | 0.43 | -0.183 | 0.0468
27 | CUL1 C496 (UniProt Q13616) | 0.021 | 0.646 | -0.13 | 0.26
28 | DCAF10 C479 (UniProt Q5QP82) | -0.306 | -0.0104 | -0.135 | 0.186
29 | CTNND1 C429 (UniProt O60716) | 0.232 | 0.335 | 0.285 | 0.254
30 | CT45A6;CT45A5;CT45A10;CT45A7;CT45A8;CT45A9;CT45A2;CT45A1;CT45A3 C22;(C22);(C22);(C22);(C22);(C22);(C22);(C22);(C22) | -0.0981 | 0.0495 | -0.159 | 0.0112
31 | CYFIP1 C519 | -0.136 | -0.084 | -0.848 | -0.137
32 | CSTF2 C150 (UniProt P33240) | 0.207 | 0.00457 | 0.276 | 0.0269
33 | CTTNBP2 C1494 | 0.235 | 0.266 | 0.317 | 0.451
34 | CUL9 C1340 (UniProt Q8IWT3) | 0.217 | 0.783 | 0.493 | 0.678
35 | DCAF15 C365 (UniProt Q66K64) | 0.177 | 0.162 | 0.0636 | 0.109
36 | DDX50 C417 (UniProt Q9BQ39) | -0.0533 | 0.149 | 0.013 | -0.04
37 | CTBP1 C38 | -0.162 | 0.0699 | -0.304 | 0.18
38 | DACH1 C243 (UniProt Q9UI36) | -0.188 | 0.186 | -0.373 | 0.00409
39 | DDX59 C414 (UniProt Q5T1V6) | 0.219 | -0.263 | 0.201 | -0.057
40 | DENND1A C338 (UniProt Q8TEH3) | -0.141 | -0.259 | -0.343 | -0.106

Row | Target | log2 mean competition ratio ([1]; 50 µM) | log2 mean competition ratio ([1]; 200 µM) | log2 mean competition ratio ([2]; 50 µM) | log2 mean competition ratio ([2]; 200 µM)
41 | CRYL1 C182 (UniProt Q9Y2S2) | -0.166 | 0.137 | -0.249 | -0.0517
42 | DENND10P1;DENND10 C135;(C135) | -0.1 | -0.0835 | -0.135 | -0.0414
43 | CUL2 C395 (UniProt Q13617) | 0.289 | 0.488 | 0.353 | 0.443
44 | DDX39B C239 | -0.0145 | -0.2 | -0.222 | -0.262
45 | CUL5 C281 (UniProt Q93034) | 0.0269 | -0.492 | -0.117 | -0.561
46 | DARS1 C334 | -0.246 | -0.124 | 0.114 | -0.0884
47 | DCP2 C140 (UniProt Q8IU60) | -0.0777 | 0.113 | -0.185 | 0.116
48 | CTPS2 C313 (UniProt Q9NRF8) | 0.113 | -0.164 | -0.115 | -0.153
49 | DDX5 C234 (UniProt P17844) | -0.2 | -0.207 | 0.0447 | 0.0284
50 | CRNKL1 C745 (UniProt Q9BZJ0) | -0.0402 | 0.19 | -0.123 | 0.208
51 | CSRP2 C25 (UniProt Q16527) | -0.266 | -0.126 | -0.381 | -0.165
52 | CWF19L1 C511 (UniProt Q69YN2) | -0.284 | -0.126 | -0.127 | -0.031
53 | DDX5 C191 (UniProt P17844) | -0.405 | 0.12 | -0.153 | 0.175
54 | DEK C161 (UniProt P35659) | 0.232 | -0.131 | -0.15 | -0.0652
55 | DDX54 C586 (UniProt Q8TDD1) | 0.359 | 0.075 | 0.238 | 0.0916
56 | CSPG5 C399 (UniProt O95196) | 0.0699 | 0.337 | 0.186 | 0.17
57 | DDA1 C25 (UniProt Q9BW61) | 0.332 | 0.0737 | 0.467 | 0.0866
58 | CRYBG3 C1502 (UniProt Q68DQ2) | -0.24 | -0.0972 | -0.215 | 0.0235
59 | DCPS C37 (UniProt Q96C86) | -0.101 | -0.242 | -0.253 | -0.302

Source: the supplement of paper PMC11732987, “Enantioselective OTUD7B fragment discovery through chemoproteomics screening and high-throughput optimisation” (Communications Chemistry, 2025)
